Data: PubChem BioAssay AID651640 (Broad Institute, 2012)
About 6,000 (1.7%) of roughly 350,000 compounds were called active. The shares of active, inactive and inconclusive entries below differ from those in the screen. Cut-off read from the data, not from the text of the source: active = CPE inhibition above about 20% (passing the limit was not always enough); inconclusive = no clear call, values can overlap the other calls; tested in BHK-21 cells. The source holds several records for some structures; these can differ, active in one and inactive in another.

test: protection of cells from dengue 2 killing – plate reader, single concentration, primary screen (AID 651640); conditions: DENV2-infected cells, cytopathic effect rescue, at 9.99 µM, hits give high values;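 note: 0% = median of neutral control wells and 100% = median of positive control wells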

SMILES	CPE inhibition
CC(C)c1csc(CN2CCN(Cc3ccc(F)cc3)C(CCO)C2)n1 (stereo not given)	inconclusive: 35.5%
Cc1cc(OCC(O)CNC(C)c2ccccc2)ccc1C(C)C (stereo not given)	active: 39.2%
C[C@@H]1CN([C@@H](C)CO)C(=O)c2cc(NC(=O)Cc3cn(C)c4ccccc34)ccc2O[C@H]1CN(C)C(=O)Nc1ccccc1	active: 34.8%
CCC1(c2ccccc2)NC(=O)N(CC(=O)N(C)CC(=O)Nc2ccc(F)c(F)c2F)C1=O (stereo not given)	inconclusive: 28.7%
Nc1c(C(=O)NCc2ccccc2)c2nc3ccccc3nc2n1CCCN1CCOCC1	inactive: -2.68%
O=C(c1cccc(Cl)c1)N1CCN(S(=O)(=O)c2ccc(Cl)s2)CC1	inconclusive: 56.7%
Cc1cc(-c2n[nH]c(=S)n2/N=C/c2cccs2)n[nH]1	inconclusive: 20.5%
O=C(c1ccccc1)N1CC[C@@H]2[C@H]1c1cc(C#Cc3ccccc3F)ccc1N[C@@H]2CO	inactive: 0.09%
COc1ccccc1CCC(=O)OCC(=O)NC1CCCCC1	inconclusive: 25.9%
Cc1no[n+]([O-])c1COc1cccc(/C=N/Nc2nncn2N)c1	inactive: 0.772%
C/C=C/c1ccc([C@H]2[C@@H](CO)N(C(=O)C3CC3)C23CN(C(=O)NC(C)C)C3)cc1	active: 105%
CCOc1ccc(NC(=O)CN(C)C(=O)c2cc3c(s2)CCC(C)C3)cc1OCC (stereo not given)	inconclusive: 44%
O=C(C[C@@H]1C[C@@H]2c3cc(NC(=O)Nc4ccccc4F)ccc3O[C@@H]2[C@@H](CO)O1)NCc1cc(F)ccc1F	inconclusive: 46.8%
Cc1ccc(CONC(=O)c2cccc(C)c2)cc1	inconclusive: 46.1%
CN1C(=O)c2cc(NC(=O)c3ccccc3Cl)ccc2OC[C@@H]2O[C@@H](CC(=O)NCC(F)(F)F)CC[C@@H]21	inactive: -2.16%
COc1ccc([C@H]2CN(c3ccccc3)C(=O)[C@@H]2CC(=O)Nc2ccccc2)cc1	inconclusive: 24.6%
C[C@H](CO)N1C[C@H](C)[C@H](CN(C)S(=O)(=O)c2cccc(F)c2)Oc2ncc(-c3cccc(F)c3)cc2C1=O	inconclusive: 26.2%
CCCNC(=O)C1(C)CCCN(Cc2ccc(Oc3ccccc3)cc2)C1 (stereo not given)	inactive: 0.526%
CCOC(=O)c1c(C)[nH]c(C)c1C(=O)COC(=O)/C=C/c1ccccc1[N+](=O)[O-]	inconclusive: 37.1%
COc1cc(/C=C/C(=O)OCC(=O)NCCc2ccccc2)ccc1OC(F)F	inconclusive: 20.9%
O=C(C[C@@H]1CC[C@H]2[C@@H](COC[C@H](O)CN2Cc2ccccc2)O1)N[C@@H]1CCN(Cc2ccccc2)C1	active: 38.6%
COc1cccc(NC(=O)N2CC3(C2)[C@@H](c2ccccc2)[C@@H](CO)N3C(=O)C2CCC2)c1	inactive: 8.79%
COCC(=O)N1[C@H](CNC(=O)c2ccccn2)[C@H](c2ccccc2)[C@@H]1CO	active: 35.1%

SMILES	CPE inhibition
CNC[C@H]1Oc2c(NC(=O)c3ccncc3)cccc2C(=O)N([C@H](C)CO)C[C@@H]1C	inactive: 7.95%
CCN(C(=O)COC(=O)COc1ccccc1Cl)c1c(N)n(Cc2ccccc2)c(=O)[nH]c1=O	inconclusive: 22.9%
C[C@@H]1CN([C@@H](C)CO)C(=O)c2cc(NS(=O)(=O)c3ccc(Cl)cc3)ccc2O[C@@H](C)CCCCO[C@H]1CN(C)C	inactive: -3.41%
O=C(CN1CCN(C(c2ccccc2)c2ccccc2)CC1)N1CCOCC1	active: 22.8%
Cc1ccc(NC(=O)CN(C)C(=O)c2cccc(S(=O)(=O)NCc3cccs3)c2)cc1	inconclusive: 25.4%
C/C=C/c1ccc([C@H]2[C@@H](C#N)N(S(=O)(=O)c3cccc(F)c3)[C@H]2CO)cc1	inconclusive: 52.9%
Cc1ccc(-c2nnn(CC(=O)N(CCCO)C(C(=O)NC3CCCC3)c3ccc(Cl)cc3)n2)o1 (stereo not given)	inactive: 4.59%
COC(=O)C[C@@H]1C[C@H]2c3cc(NC(=O)CC4CC4)ccc3O[C@H]2[C@@H](CO)O1	active: 24.2%
C[C@@H]1CN([C@H](C)CO)C(=O)CCCn2nncc2CO[C@H]1CN(C)C(=O)c1ccc2ccn(C)c2c1	inconclusive: 47%
O=C1[C@H]2[C@@H](c3ccc(F)cc3)N3C(=O)N(c4cccc(F)c4)C(=O)[C@@]3(Cc3ccc(Cl)cc3)[C@H]2C(=O)N1C1CCCCC1	active: 23.8%
C[C@@H]1CN([C@H](C)CO)C(=O)c2cc(NS(=O)(=O)c3cn(C)cn3)ccc2O[C@@H](C)CCCCO[C@H]1CN(C)Cc1ccc(C(=O)O)cc1	inactive: -7.44%
COc1ccc(C#Cc2cccc(-c3nc(C(=O)NCc4ccc5c(c4)OCO5)cc4c3[C@@H](CCO)N(S(=O)C(C)(C)C)C4)c2)cc1OC (stereo not given in full)	inconclusive: 34.3%
FC(F)(F)c1cccnc1Oc1ccc(C2=NCCS2)cc1	active: 68.4%
CCCCN(C(=O)c1cccc(S(=O)(=O)N2CC(C)OC(C)C2)c1)c1c(N)n(CCCC)c(=O)[nH]c1=O (stereo not given)	inconclusive: 22%
CO[C@@H]1CN(C)C(=O)c2cc(NS(C)(=O)=O)ccc2OC[C@H](C)N(S(C)(=O)=O)C[C@H]1C	inactive: 2.94%
COc1ccc(NC(=O)Nc2cccc3c2O[C@H](CN(C)S(=O)(=O)c2ccccc2)[C@H](C)CN([C@@H](C)CO)C3=O)cc1	active: 80.1%
COc1ccc(Oc2cc(NN3CCCCC3)c([N+](=O)[O-])cc2[N+](=O)[O-])cc1OC	active: 38.5%
CCC(=O)c1ccc(OCC(O)CNCc2ccc(F)cc2)cc1 (stereo not given)	inconclusive: 30.9%
COc1ccc(C(=O)c2cn[nH]c2-c2cc(C)ccc2O)cc1	inconclusive: 22.5%
CN(C)CC#Cc1ccc([C@@H]2[C@@H](CO)N3CCCCN(C(=O)CN(C)C)C[C@H]23)cc1	inconclusive: 36.8%
CCN(CC)S(=O)(=O)c1ccc(N2CCOCC2)c(NC(=O)c2ccccc2)c1	active: 26.1%
Cc1ccc(S(=O)(=O)Nc2ccc3c(c2)C(=O)N([C@H](C)CO)C[C@H](C)[C@@H](CN(C)Cc2ccc4c(c2)OCO4)OCCCC[C@H](C)O3)cc1	inconclusive: 28.4%

Among those listed so far, 4 contain two or more sulfur atoms:
SMILES	CPE inhibition
O=C(c1cccc(Cl)c1)N1CCN(S(=O)(=O)c2ccc(Cl)s2)CC1	inconclusive: 56.7%
Cc1cc(-c2n[nH]c(=S)n2/N=C/c2cccs2)n[nH]1	inconclusive: 20.5%
Cc1ccc(NC(=O)CN(C)C(=O)c2cccc(S(=O)(=O)NCc3cccs3)c2)cc1	inconclusive: 25.4%
CO[C@@H]1CN(C)C(=O)c2cc(NS(C)(=O)=O)ccc2OC[C@H](C)N(S(C)(=O)=O)C[C@H]1C	inactive: 2.94%
